Assay results published in publication PMC6220877 (Chembiochem, 2018).

Key:
Conditions in all cases: whole synthesis, analytical reversed-phase HPLC (system A) and LC-MS
[1] = general procedure: Fmoc solid-phase peptide synthesis; 2-Chlorotrityl chloride resin
[2] = general procedure: Fmoc solid-phase peptide synthesis; Fmoc-Leu-Wang resin
[3] = general procedure: Fmoc solid-phase peptide synthesis; 2-chlorotrityl chloride resin; Fmoc-Leu-Wang resin; HMBA resin
[4] = general procedure: Fmoc solid-phase peptide synthesis; HMBA resin

| Substance | final HPLC purity [1] | final LC-MS purity [1] | other results |
| --- | --- | --- | --- |
| Ac-Asp-Thp-Glu-Thr-Gly-Glu-Leu-OH | >95% | >95% |  |
| Ac-Asp-Pro-Glu-hPhe-Gly-Glu-Leu-OH |  |  | final HPLC purity [2]: >95%; final LC-MS purity [2]: >95% |
| Ac-Asp-Pip-Glu-Thr-Gly-Glu-Leu-OH |  |  | final HPLC purity [3]: >95%; final LC-MS purity [3]: >95% |
| Ac‐Asp‐Pro‐Glu‐Thr‐Gly‐Glu‐Leu‐NH‐isopentyl |  |  | final HPLC purity [4]: >95%; final LC-MS purity [4]: >95% |
| Ac-Asp-Pro-Glu-Bap-Gly-Glu-Leu-OH |  |  | final HPLC purity [2]: >95%; final LC-MS purity [2]: >95% |
| Ac-DPETGE[Cha]-OH (SMILES CC(=O)N[C@@H](CC(=O)O)C(=O)N1CCC[C@H]1C(=O)N[C@@H](CCC(=O)O)C(=O)N[C@H](C(=O)NCC(=O)N[C@@H](CCC(=O)O)C(=O)N[C@@H](CC1CCCCC1)C(=O)O)[C@@H](C)O) | >95% | >95% |  |
| Ac-Asp-Pro-Glu-Thr-Gly-Glu-Leu-NH-Bn |  |  | final HPLC purity [4]: >95%; final LC-MS purity [4]: >95% |
| Ac-DPETGE[2Thi]-OH (SMILES CC(=O)N[C@@H](CC(=O)O)C(=O)N1CCC[C@H]1C(=O)N[C@@H](CCC(=O)O)C(=O)N[C@H](C(=O)NCC(=O)N[C@@H](CCC(=O)O)C(=O)N[C@@H](Cc1cccs1)C(=O)O)[C@@H](C)O) | >95% | >95% |  |
| Ac-DPENGEL-OH | >95% | >95% |  |
| Ac-DPETGE[Tle]-OH (SMILES CC(=O)N[C@@H](CC(=O)O)C(=O)N1CCC[C@H]1C(=O)N[C@@H](CCC(=O)O)C(=O)N[C@H](C(=O)NCC(=O)N[C@@H](CCC(=O)O)C(=O)N[C@H](C(=O)O)C(C)(C)C)[C@@H](C)O) | >95% | >95% |  |
| Ac-Asp-Pro-Glu-Thr-Gly-Glu-Leu-TET | >95% | >95% |  |

The same purity stands for every peptide and may come from a single statement. [ ]: non-standard residue; d: D form. 2Thi = N[C@@H](Cc1cccs1)C(=O)O; Cha = N[C@@H](CC1CCCCC1)C(=O)O; Tle = CC(C)(C)[C@H](N)C(=O)O
